These results are taken from PubChem BioAssay AID1347422 (Sanford-Burnham Center for Chemical Genomics, 2020).

Chains of the proteins cited; added tags and fusions are not shown. Lines headed by an entry give the natural chain unless they say otherwise; changes in a name come on top.
UniProt O00391: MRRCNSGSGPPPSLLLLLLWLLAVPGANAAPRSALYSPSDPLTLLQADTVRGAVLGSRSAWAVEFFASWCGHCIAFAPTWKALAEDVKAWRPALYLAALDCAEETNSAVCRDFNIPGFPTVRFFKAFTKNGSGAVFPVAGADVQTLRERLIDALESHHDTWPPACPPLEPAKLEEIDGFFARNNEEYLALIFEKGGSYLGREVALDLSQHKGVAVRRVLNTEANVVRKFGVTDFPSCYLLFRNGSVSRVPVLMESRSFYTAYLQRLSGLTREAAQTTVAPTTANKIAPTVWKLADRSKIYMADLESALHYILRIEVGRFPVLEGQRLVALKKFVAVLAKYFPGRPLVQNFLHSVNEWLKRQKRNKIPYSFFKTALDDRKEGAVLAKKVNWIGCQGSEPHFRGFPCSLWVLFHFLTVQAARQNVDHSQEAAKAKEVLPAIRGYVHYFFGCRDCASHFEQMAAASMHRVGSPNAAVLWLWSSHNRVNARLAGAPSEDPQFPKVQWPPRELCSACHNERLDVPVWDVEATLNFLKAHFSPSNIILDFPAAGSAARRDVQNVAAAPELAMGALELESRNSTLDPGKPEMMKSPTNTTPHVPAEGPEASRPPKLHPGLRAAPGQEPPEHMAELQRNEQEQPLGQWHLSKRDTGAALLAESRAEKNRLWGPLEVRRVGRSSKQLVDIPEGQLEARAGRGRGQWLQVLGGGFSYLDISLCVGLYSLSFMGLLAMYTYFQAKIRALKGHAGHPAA

Over roughly 1,000 compounds, “thermal shift dTm” has its median near 0.19; the highest 2% begin near 1.7. The list shows a part of the results. Calls of active or inactive are those of the source.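 Rule for the calls: active = mean rise in melting temperature of at least 1 degC over same-plate control wells; inactive = below that, where a call was filed.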

In this assay the target is Sulfhydryl oxidase 1 (Homo sapiens) (UniProt O00391). The assay can be described thus: ligand-induced melting shift of human QSOX1 – biophysical, protein thermal shift, single concentration, QSOX1 inhibitor project, confirmation (AID 1347422).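 Note: dTm is compound Tm minus mean Tm of DMSO-only wells on that plate.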 The following applies: recombinant hQSOX1 thermal shift, Sypro Orange, at 25 µM, stronger effect = higher value.
Turning to `CCC(=O)Nc1ccc(NC(=O)/C=C/c2ccc(C(C)C)cc2)cc1`, the thermal shift dTm was 0.06 °C.
As for `Fc1ccc(COc2ccc(-c3cnc4ccccc4n3)cc2)cc1`, the thermal shift dTm amounted to 0.58 °C.
Take `CC(NC(=O)c1ccc(-c2cc(Cl)ccc2Cl)o1)c1ccccc1` (stereo not drawn): the thermal shift dTm turned out to be 0.07 °C.
For the molecule `COc1cc(CO)cc(I)c1OCc1ccc(Cl)cc1`, the thermal shift dTm amounted to 0.11 °C.
For the molecule `CC(=O)Nc1cccc(-c2csc(Nc3ccc(O)c(C(=O)O)c3)n2)c1`, the thermal shift dTm was 0.72 °C.
Regarding `Oc1cccc(Nc2ncnc3ccc(I)cc23)c1`, the thermal shift dTm was found to be 0.44 °C.
For `CCSC1=N/C(=C\c2ccc(-c3ccc(F)cc3)o2)C(=O)S1`, the thermal shift dTm came to 0.53 °C.
On to `Cc1cc(I)cc2c1NC(C(=O)O)C1CC=CC21` (stereo not drawn), for which the thermal shift dTm is active: 1.44 °C.
As for `Cc1ccc(OCCn2cc(C(=S)N3CCOCC3)c3ccccc32)cc1`, the thermal shift dTm was 0.11 °C.
Turning to `CC(C)C(=O)Nc1ccc(C(=O)Nc2ccc(O)cc2)cc1`, the thermal shift dTm came to 0.13 °C.
Regarding `CCN(CC)S(=O)(=O)c1ccc(OC)c(NC(=O)Nc2ccccc2C)c1`, the thermal shift dTm stood at 0.52 °C.
As to `CC(=O)Nc1ccc(CN2Cc3cc(C)ccc3OC(c3ccsc3)C2)cc1` (stereo not drawn), the thermal shift dTm amounted to 0.28 °C.
Consider `CCNS(=O)(=O)c1ccc(NC(=O)Nc2cccc(OC)c2)cc1`, for which the thermal shift dTm is active: 1.39 °C.
As for `CCOc1ccccc1C1C(C#N)=C(N)Oc2cc(N(C)C)ccc21` (stereo not drawn), the thermal shift dTm came out at 0.29 °C.
On to `OCc1ccc(OCc2ccc(Cl)c(Cl)c2)c(Br)c1`, for which the thermal shift dTm is 0.77 °C.
To `NS(=O)(=O)c1ccc(NC(=S)Nc2ccc(OCc3ccccc3)cc2)cc1` belongs inactive: -0.07 °C; to `COc1ccc(NC(=O)CSC2CC(=O)N(c3ccccc3)C2=O)cc1Cl` (stereo not drawn), 0.3 °C; to `Oc1ccc(CNc2cccc(Br)c2)c2cccnc12`, 0.02 °C.
As to `CCC1=[N+](c2nc(-c3ccc([N+](=O)[O-])cc3)nc3ccccc23)CCCC1`, the thermal shift dTm was 0.02 °C.
`COc1cc(/C=C2\N=C(SC)SC2=O)ccc1OCc1ccccc1`: the thermal shift dTm worked out at 0.62 °C.
As to `NC(=O)c1c(NC(=O)C#Cc2ccccc2)sc2c1CCC2`, the thermal shift dTm turned out to be 0.39 °C.
Take `Cc1ccc2nc(NC(=O)CC(C)c3ccccc3)sc2c1` (stereo not drawn): the thermal shift dTm is inactive: -0.03 °C.
Turning to `S=C(Nc1ccc2nc(-c3ccco3)c(-c3ccco3)nc2c1)N1CCOCC1`, the thermal shift dTm is inactive: -0.22 °C.
Regarding `Cc1cc(=O)[nH]c(SCC(=O)Nc2ncc(Cc3cccc(Cl)c3Cl)s2)n1`, the thermal shift dTm was 0.11 °C.
With `O=C(CN1C(=O)C2C3C=CC(C3)C2C1=O)Nc1ccc2c(c1)oc1ccccc12` (stereo not drawn), the thermal shift dTm stood at 0.02 °C.
On to `CC(=O)Nc1cccc(NC(=O)COc2ccc(C)cc2Br)c1`, for which the thermal shift dTm is 0.24 °C.
To `CC(=O)Nc1ccc(C(=O)CSc2cc(C)c3cccc(C)c3n2)cc1` belongs inactive: -0.04 °C; to `O=C(/C=C/c1ccco1)Nc1ccc(Br)c(Cl)c1`, 0.02 °C.
With `Cc1cc(C(=O)OCC(=O)Nc2cccc(C(F)(F)F)c2)c2ccccc2n1`, the thermal shift dTm was inactive: -0.18 °C.
Consider `Clc1ccc(-c2nc(Nc3ccc4c(c3)OCCO4)c3ccccc3n2)cc1`, for which the thermal shift dTm turned out to be 0.11 °C.
As to `CC(=O)Oc1ccc(-c2csc(Nc3ccccc3F)n2)cc1`, the thermal shift dTm is 0.35 °C.
As for `COc1ccc(C)cc1NC(=O)Nc1ccc(OC(F)F)c(Cl)c1`, the thermal shift dTm is inactive: -0.79 °C.
To `Cc1[nH]nc(-c2ccc(O)cc2O)c1-c1ccc(Br)cc1` belongs 0.54 °C; to `Cc1cc(Cl)ccc1OCCCC(=O)Nc1ccc(C(N)=O)cc1`, inactive: -0.23 °C; to `Cc1cccc2cc3c(NC(=O)c4cccs4)nn(C)c3nc12`, 0.24 °C.
For the molecule `O=S(=O)(c1ccc(NC(=S)Nc2ccc(F)c(Cl)c2)cc1)N1CCCC1`, the thermal shift dTm is 0.86 °C.
In the case of `CCc1ccc(-n2c(CCC(=O)O)ccc2-c2ccc(Br)cc2)cc1`, the thermal shift dTm is 0.2 °C.
In the case of `c1ccc(CCNc2nc3ccccc3[nH]2)cc1`, the thermal shift dTm was inactive: -0.09 °C.
In the case of `Cc1[nH]nc(-c2ccc(O)cc2O)c1-c1cnn(-c2ccccc2)c1`, the thermal shift dTm is active: 1.63 °C.
Consider `COc1ccccc1-c1cn(S(=O)(=O)c2cc(Cl)sc2Cl)nc1N`, for which the thermal shift dTm amounted to 0.1 °C.
Regarding `CCOC(=O)Nc1ccc(-n2ccc(C)n2)cc1`, the thermal shift dTm was inactive: -0.04 °C.
Consider `Cc1nc(-c2ccc(C(=O)Nc3ccc(F)cc3)cc2)cs1`, for which the thermal shift dTm turned out to be 0.15 °C.
In the case of `Cc1ccc(C(=O)N/C(=C/c2ccc(-c3ccc(Cl)cc3Cl)o2)C(=O)NCCCO)cc1`, the thermal shift dTm amounted to 0.1 °C.
Take `Nc1nc(-c2ccc(NC(=O)c3ccc(Cl)cc3)cc2)cs1`: the thermal shift dTm is 0.53 °C.
With `Cc1ccc(-c2noc(CNC(=O)C(c3ccccc3)c3ccccc3)n2)cc1`, the thermal shift dTm was 0.39 °C.
`COc1cccc(C2C(C#N)=C(N)Oc3c2ccc2ccccc32)c1OC` (stereo not drawn): the thermal shift dTm was 0.15 °C.
With `CCCN1C(=O)C(c2c[nH]c3ccccc23)(c2c[nH]c3ccccc23)c2ccccc21`, the thermal shift dTm was 0.12 °C.
To `COc1cccc(NC(=O)Nc2ccc(Cc3ccncc3)cc2)c1` belongs 0.38 °C.
The value for `Cc1cc(O)c(-c2n[nH]c3c2C(c2ccc(Cl)cc2)N(Cc2cccnc2)C3=O)cc1C` (stereo not drawn) was 0.07 °C; that for `NC(=O)c1ccc(-c2ccc3[nH]ccc3c2)nc1` was 0.79 °C.
`O=C(COc1ccc(Cl)cc1)NCCSCc1ccc(Cl)cc1Cl`: the thermal shift dTm turned out to be 0.06 °C.
For `CCc1ccc(C(=O)Nc2nc3c(s2)CCCC3)s1`, the thermal shift dTm is inactive: -0.05 °C.
As to `CCOc1ccc(NC(=O)Nc2nnc(SCCOc3ccccc3)s2)cc1`, the thermal shift dTm turned out to be 0.48 °C.
To `CC(=O)Oc1cccc2ccc(/C=C/c3ccc(F)cc3)nc12` belongs inactive: -0.12 °C.
Take `Cc1[nH]nc(-c2ccc(O)c(O)c2O)c1Oc1ccc(F)cc1`: the thermal shift dTm was inactive: -5.32 °C.
As to `CN(c1ccccc1)S(=O)(=O)c1ccc2[nH]c(=O)oc2c1`, the thermal shift dTm turned out to be 0.95 °C.
For `CC(=O)Nc1ccc(NC(=O)Nc2ccc(F)cc2F)cc1`, the thermal shift dTm is 0.47 °C.
On to `CC(=O)Nc1cccc(Nc2cc(-c3ccccc3)nc(C)n2)c1`, for which the thermal shift dTm is active: 1.49 °C.
For the molecule `Cc1ccccc1-c1nnc(NC(=O)NC(C)Cc2cccs2)s1` (stereo not drawn), the thermal shift dTm came out at 0.28 °C.
To `CCc1ccc(NC(=O)COc2ccccc2F)cc1` belongs 0.24 °C; to `CCN(Cc1nc(-c2ccc(OC)cc2)no1)C(=O)Nc1cccc(Cl)c1`, 0.23 °C.
The value for `C=CCN1C(=O)c2[nH]nc(-c3cc(C)c(C)cc3O)c2C1c1cccc(Br)c1` (stereo not drawn) was active: 1 °C.
Regarding `COc1cccc(CN2c3cccc4cccc(c34)S2(=O)=O)c1`, the thermal shift dTm came out at 0.07 °C.
For `O=C(CSc1ncnc2sc(-c3ccccc3)cc12)N1CCCCC1`, the thermal shift dTm is 0.25 °C.
The value for `Cc1ccc(NC(=O)Nc2nnc(SCCOc3ccccc3)s2)cc1` was 0.95 °C.
Consider `O=c1c2ccccc2ncn1CCCOc1ccc2ccccc2c1Br`, for which the thermal shift dTm was found to be 0.11 °C.
Regarding `O=C(Nc1ccccc1-c1ccccc1)c1ccc(NS(=O)(=O)c2ccccc2)cc1`, the thermal shift dTm was determined as 0.75 °C.
On to `O=C(NCCOc1ccccc1Cl)c1ccc(I)cc1`, for which the thermal shift dTm is inactive: -0.09 °C.
With `O=C(NCc1nc(-c2ccccc2)no1)c1ccc2ccccc2c1`, the thermal shift dTm came to 0.02 °C.
Turning to `O/N=C/c1ccc(OCc2ccccc2F)c(Br)c1`, the thermal shift dTm was 0.11 °C.
As for `NC(N)=Nc1nc(-c2ccc3ccccc3c2)cs1`, the thermal shift dTm turned out to be 0.23 °C.
`O=c1[nH]c(SCc2ccc(Cl)c(Cl)c2)nc2ccccc12`: the thermal shift dTm amounted to 0.11 °C.
The value for `CCCC(=O)Nc1cccc(NC(=O)c2ccc(CC)cc2)c1` was 0.18 °C.
Regarding `Cc1ccc(CCC(=O)Nc2ccc(I)cc2)o1`, the thermal shift dTm was inactive: -0.03 °C.
Turning to `O=C(NCCc1nc2ccccc2[nH]1)c1nc(-c2cccs2)no1`, the thermal shift dTm is 0.15 °C.
As for `O=C(/C=C/c1cccs1)NCCNC(=O)/C=C/c1cccs1`, the thermal shift dTm came to 0.44 °C.
In the case of `O=C(NCc1ccco1)c1cc2cc(Cl)cc(Cl)c2oc1=O`, the thermal shift dTm stood at 0.68 °C.
In the case of `CC(=O)Oc1cccc(/C=C/c2ccc3ccccc3n2)c1Cl`, the thermal shift dTm came out at 0.11 °C.
The value for `CCc1ccc(-c2cn3ccc(C)cc3n2)cc1` was 0.53 °C.
With `CCOC(=O)c1ccc(NC(=O)Nc2ccc(OC)c(OC)c2)cc1`, the thermal shift dTm is inactive: -22.2 °C.
The value for `Cc1ccc(NC(=O)c2ccc3c(c2)OCO3)cc1F` was active: 1.63 °C.
In the case of `COc1ccc(-c2nnc(Nc3ccc(O)cc3)c3ccccc23)cc1`, the thermal shift dTm stood at 0.15 °C.
For `Clc1cccc(-c2cn3ccccc3n2)c1`, the thermal shift dTm amounted to 0.71 °C.
With `OCc1ccc(OCc2ccc(Br)cc2)c(Cl)c1`, the thermal shift dTm is 0.02 °C.
In the case of `Nc1ccc(-c2cccc(-c3ccn[nH]3)c2)c(F)c1`, the thermal shift dTm was found to be 0.23 °C.
For the molecule `c1ccc(-c2onc3ccc(-c4nnc(-c5ccco5)o4)cc23)cc1`, the thermal shift dTm is active: 1.37 °C.
For `CCC(=O)Nc1ccc(C(=O)NCCc2ccc(F)cc2)cc1`, the thermal shift dTm was found to be 0.02 °C.
`Cc1ccc(/C=C/C(=O)NCC(C)NC(=O)/C=C/c2ccc(C)cc2)cc1` (stereo not drawn): the thermal shift dTm came out at 0.45 °C.
On to `CCCc1cc(C(=O)Nc2ccc3[nH]ncc3c2)cs1`, for which the thermal shift dTm was active: 2.61 °C.
Regarding `Cn1ncc(C#N)c1NC(=O)c1cc2nc(-c3ccccc3)cc(-c3ccccc3)n2n1`, the thermal shift dTm was inactive: -0.18 °C.
For the molecule `NC(=O)c1ccc(NC(=O)C2CC2(c2ccccc2)c2ccccc2)cc1` (stereo not drawn), the thermal shift dTm amounted to 0.19 °C.
To `CNS(=O)(=O)c1ccc(NC(=O)c2ccc(Cl)s2)cc1` belongs active: 1.11 °C; to `COc1ccc(NC(=O)NCCc2ccc(F)cc2)cc1`, inactive: -6.32 °C; to `COc1cc2c(cc1NC(=O)CSc1nc(N)cc(=O)[nH]1)oc1ccccc12`, 0.13 °C.
The value for `Cc1ccc(NS(=O)(=O)c2ccc3c(c2)CC(C)(C)OC3)cc1` was 0.23 °C; that for `CCC(=O)Nc1ccc(NC(=O)c2ccc(CC)cc2)cc1` was 0.23 °C.
Take `CCSC1=N/C(=C\c2ccc(-c3ccccc3Cl)o2)C(=O)S1`: the thermal shift dTm was found to be 0.9 °C.
To `CCc1cc(-c2n[nH]c(C)c2Oc2ccc(F)cc2)c(O)cc1O` belongs 0.02 °C.
The value for `O=C(Nc1cccc(F)c1)N1CCN(c2cccc(C(F)(F)F)c2)CC1` was 0.66 °C.
As for `Cc1sc(NC(=O)C#Cc2ccccc2)c(C(N)=O)c1C`, the thermal shift dTm is 0.33 °C.
Take `O=C(Cc1cccs1)Nc1cccc(C(=O)Nc2nccs2)c1`: the thermal shift dTm was inactive: -0.01 °C.
On to `O=C(Nc1ccc2c(c1)OCO2)Nc1ccc(Cl)c(C(F)(F)F)c1`, for which the thermal shift dTm came out at 0.28 °C.
Take `O=C(Nc1ccc2[nH]ncc2c1)c1ccc(Br)o1`: the thermal shift dTm was 0.97 °C.
On to `Cc1ccc2c(C)c(C(=O)Nc3ccc(S(=O)(=O)Nc4onc(C)c4C)cc3)oc2c1`, for which the thermal shift dTm is active: 1.03 °C.
In the case of `CC(C)c1cc(NCc2cccnc2)n2ncc(-c3ccccc3)c2n1`, the thermal shift dTm is 0.37 °C.
Regarding `CC1=C(C)CC(C(=O)Nc2nc(-c3ccc(CC(C)C)cc3)cs2)C(C(=O)O)C1` (stereo not drawn), the thermal shift dTm came out at 0.02 °C.
As to `O=C(Nc1ccccc1)Oc1ccc(Cl)cc1Br`, the thermal shift dTm was 0.19 °C.
Take `C=CCOc1cccc(/C=C2\N=C(SCc3ccccc3)SC2=O)c1`: the thermal shift dTm was determined as 0.4 °C.
Consider `Cc1ccc(S(=O)(=O)Nc2cc(Cl)c(O)c(C)c2C)cc1`, for which the thermal shift dTm came out at 0.34 °C.
For the molecule `COc1ccc2c(Cl)c(C(=O)NCCc3ccc(S(N)(=O)=O)cc3)sc2c1`, the thermal shift dTm is inactive: 0 °C.
With `CCCNC(=O)Nc1cc2oc3ccccc3c2cc1OC`, the thermal shift dTm came to 0.28 °C.
As for `COc1cccc(NC(=S)NCC(C)(C)CNC(=S)Nc2cccc(OC)c2)c1`, the thermal shift dTm was found to be 0.21 °C.
The value for `Cc1cc(C)cc(NC(=S)NCC(O)c2ccccc2)c1` (stereo not drawn) was inactive: -0.03 °C.
